Test results published in US20210261642A1, “SOLUBILITY OF GLP-1 PEPTIDE” (Novo Nordisk A/S, priority 2017, published 2021).
This continues a long series; more values of the same kind are listed elsewhere.

Test: Assay (I): Determination of Solubility (96-well plate, pH 3.0-11.0, organic solvent 0-70% w/w, UV absorption at 280 nm)
Type: physicochemical
Conditions: Method 1 (evaporation)
Procedure: Assay (I): Determination of Solubility
96-Well Plate Preparation
96-well plates containing target peptide in a solid form were prepared in one of two ways:
Method 1 (evaporation): Addition of 100 μl stock solution of said peptide at a concentration of 4-6 mg/ml to each well of a 96-well half area plate (150 μl well size). Subsequently the solvent was evaporated by applying a vacuum until the solvent was completely removed.
Method 2 (precipitation): Addition of a certain volume of a stock solution of said peptide containing to each well of a 96-well half area plate followed by the addition of a certain volume of concentrated phosphoric acid to obtain a pH of 4.6 followed by addition of a certain volume of ethanol resulting in a final ethanol concentration of 20% v/v. Subsequently the plate was stored at 4° C. for 1 h and then centrifuged at 4,000 rpm for 20 min. Finally the supernatant was removed. The concentration of the stock solution was chosen in a way that the final amount of peptide after supernatant removal was >0.4 mg per well.
In both cases the stock solution was prepared by adding de-ionized water to a certain amount of powder of said peptide followed by a stepwise addition of small amounts of a concentrated sodium hydroxide solution until said peptide was completely in solution.
To determine solubility of a target peptide at different pH and organic solvent concentrations, two different buffer systems were used in independent experiments to cover the whole range from pH 3.0 to pH 11.0. Buffer system 1 covers pH 3.0-7.5 and buffer system 2 covers pH 7.5-11.0. For each buffer system 96 different solvent compositions were premixed in the following way: • 1. A low pH buffer (adjusted to either pH 3.0 or pH 7.5) and a high pH buffer (adjusted to either pH 7.5 or pH 11.0) were mixed at 8 different ratios to obtain values between pH 3.0 and pH 7.5 or pH 7.5 and pH 11.0, respectively. The total volume after mixing was 300 μl. • 2. 12 different amounts of organic solvent were then added to these buffers to obtain organic solvent (e.g. ethanol) concentrations between 0 and 70% w/w. • 3. Water was then added to obtain a total weight of 1.0 g of solvent in each well.
After preparing the 96 different solvent systems, 100 μl of each system was transferred to the 96-well plate containing the solid form of the target peptide (prepared as described in the section “96-well plate preparation”). The plate was then stored at a given temperature (between 5° C. and 70° C.) for a given time on a rotating shaker set to 400 rpm. At regular time intervals the plate was centrifuged (4,000 rpm for 10 min) and a 10 μl sample was taken from each well. The samples were then analysed by UV absorption at 280 nm for peptide quantification. Peptide concentration results are given as UV absorption at 280 nm of the sample subtracted UV absorption at 280 nm of a well comprising 10 μl water.
The buffers used were as follows: • Buffer system 1 (for the pH range from pH 3.0-7.5)
• Buffer system 2 (for the pH ranae from pH 7.5-11.0)
Solubility of liraglutide was determined using Assay (I) described herein. Liraglutide was prepared using Method 1 (evaporation) or Method 2 (precipitation) as described in subsection “96-well plate preparation”.

Question: What does the source list for `CCCCCCCCCCCCCCCC(=O)N[C@@H](CCC(=O)NCCCC[C@H](NC(=O)[C@H](C)NC(=O)[C@H](C)NC(=O)[C@H](CCC(N)=O)NC(=O)CNC(=O)[C@H](CCC(=O)O)NC(=O)[C@H](CC(C)C)NC(=O)[C@H](Cc1ccc(O)cc1)NC(=O)[C@H](CO)NC(=O)[C@H](CO)NC(=O)[C@@H](NC(=O)[C@H](CC(=O)O)NC(=O)[C@H](CO)NC(=O)[C@@H](NC(=O)[C@H](Cc1ccccc1)NC(=O)[C@@H](NC(=O)CNC(=O)[C@H](CCC(=O)O)NC(=O)[C@H](C)NC(=O)[C@@H](N)Cc1cnc[nH]1)[C@@H](C)O)[C@@H](C)O)C(C)C)C(=O)N[C@@H](CCC(=O)O)C(=O)N[C@@H](Cc1ccccc1)C(=O)N[C@H](C(=O)N[C@@H](C)C(=O)N[C@@H](Cc1c[nH]c2ccccc12)C(=O)N[C@@H](CC(C)C)C(=O)N[C@H](C(=O)N[C@@H](CCCNC(=N)N)C(=O)NCC(=O)N[C@@H](CCCNC(=N)N)C(=O)NCC(=O)O)C(C)C)[C@@H](C)CC)C(=O)O` [liraglutide, Arg34,Lys26-(N-epsilon-(gamma-L-glutamyl(N-alfa-hexadecanoyl)))-GLP-1(7-37)]?
Answer: Peptide concentration after 24 h (DMF 31.8% w/w, pH 6.9, RT): 2.2 mg/mL; Peptide concentration after 5 min (DMF 31.8% w/w, pH 7.2, RT): 0.8 mg/mL; Peptide concentration after 180 min (DMF 31.8% w/w, pH 7.2, RT): 1.7 mg/mL; Peptide concentration after 24 h (DMF 31.8% w/w, pH 7.2, RT): >4.0 mg/mL; Peptide concentration after 5 min (DMF 31.8% w/w, pH 7.5, RT): 2.6 mg/mL; Peptide concentration after 180 min (DMF 31.8% w/w, pH 7.5, RT): >4.0 mg/mL; Peptide concentration after 5 min (DMF 31.8% w/w, pH 8.0, RT): 0.9 mg/mL; Peptide concentration after 180 min (DMF 31.8% w/w, pH 8.0, RT): 3.6 mg/mL; Peptide concentration after 5 min (DMF 31.8% w/w, pH 8.5, RT): 1.5 mg/mL; Peptide concentration after 180 min (DMF 31.8% w/w, pH 8.5, RT): >4.0 mg/mL; Peptide concentration after 5 min (DMF 31.8% w/w, pH 9.0, RT): 0.7 mg/mL; Peptide concentration after 180 min (DMF 31.8% w/w, pH 9.0, RT): >4.0 mg/mL; Peptide concentration after 5 min (DMF 31.8% w/w, pH 9.5, RT): 2.5 mg/mL; Peptide concentration after 180 min (DMF 31.8% w/w, pH 9.5, RT): >4.0 mg/mL; Peptide concentration after 5 min (DMF 31.8% w/w, pH 10.0, RT): 3.3 mg/mL; Peptide concentration after 180 min (DMF 31.8% w/w, pH 10.0, RT): >4.0 mg/mL; Peptide concentration after 5 min (DMF 31.8% w/w, pH 10.5, RT): 2.3 mg/mL; Peptide concentration after 180 min (DMF 31.8% w/w, pH 10.5, RT): >4.0 mg/mL; Peptide concentration after 5 min (DMF 31.8% w/w, pH 11.0, RT): 1.8 mg/mL; Peptide concentration after 180 min (DMF 31.8% w/w, pH 11.0, RT): 3.7 mg/mL; Peptide concentration after 5 min (DMF 38.2% w/w, pH 3.1, RT): 0.2 mg/mL; Peptide concentration after 180 min (DMF 38.2% w/w, pH 3.1, RT): 0.2 mg/mL; Peptide concentration after 24 h (DMF 38.2% w/w, pH 3.1, RT): 0.4 mg/mL; Peptide concentration after 5 min (DMF 38.2% w/w, pH 4.8, RT): 0.2 mg/mL; Peptide concentration after 180 min (DMF 38.2% w/w, pH 4.8, RT): 0.3 mg/mL; Peptide concentration after 24 h (DMF 38.2% w/w, pH 4.8, RT): 0.3 mg/mL; Peptide concentration after 5 min (DMF 38.2% w/w, pH 5.8, RT): 0.5 mg/mL; Peptide concentration after 180 min (DMF 38.2% w/w, pH 5.8, RT): 0.6 mg/mL; Peptide concentration after 24 h (DMF 38.2% w/w, pH 5.8, RT): 0.7 mg/mL; Peptide concentration after 5 min (DMF 38.2% w/w, pH 6.3, RT): 0.5 mg/mL; Peptide concentration after 180 min (DMF 38.2% w/w, pH 6.3, RT): 0.6 mg/mL; Peptide concentration after 24 h (DMF 38.2% w/w, pH 6.3, RT): 1.5 mg/mL; Peptide concentration after 5 min (DMF 38.2% w/w, pH 6.7, RT): 0.7 mg/mL; Peptide concentration after 180 min (DMF 38.2% w/w, pH 6.7, RT): 0.8 mg/mL; Peptide concentration after 24 h (DMF 38.2% w/w, pH 6.7, RT): 1.1 mg/mL; Peptide concentration after 5 min (DMF 38.2% w/w, pH 6.9, RT): 0.5 mg/mL; Peptide concentration after 180 min (DMF 38.2% w/w, pH 6.9, RT): 0.6 mg/mL; Peptide concentration after 24 h (DMF 38.2% w/w, pH 6.9, RT): 0.8 mg/mL; Peptide concentration after 5 min (DMF 38.2% w/w, pH 7.2, RT): 0.6 mg/mL; Peptide concentration after 180 min (DMF 38.2% w/w, pH 7.2, RT): 0.7 mg/mL; Peptide concentration after 24 h (DMF 38.2% w/w, pH 7.2, RT): 1.6 mg/mL; Peptide concentration after 5 min (DMF 38.2% w/w, pH 7.5, RT): 1.5 mg/mL; Peptide concentration after 5 min (DMF 38.2% w/w, pH 8.0, RT): 0.7 mg/mL; Peptide concentration after 180 min (DMF 38.2% w/w, pH 8.0, RT): >4.0 mg/mL; Peptide concentration after 5 min (DMF 38.2% w/w, pH 8.5, RT): 1.5 mg/mL; Peptide concentration after 180 min (DMF 38.2% w/w, pH 8.5, RT): >4.0 mg/mL; Peptide concentration after 5 min (DMF 38.2% w/w, pH 9.0, RT): 1.1 mg/mL; Peptide concentration after 180 min (DMF 38.2% w/w, pH 9.0, RT): >4.0 mg/mL; Peptide concentration after 5 min (DMF 38.2% w/w, pH 9.5, RT): >4.0 mg/mL
